Laboratory results as given in patent US7009037 (dated 2006).

Experiment: general procedure: peptide synthesis; Tenta Gel P RAM, theoretical loading 0.20 meq/g (RAPP POLYMERE GmbH)
Details: whole synthesis, analytical HPLC

Substance	final HPLC purity
RLIYATRQLQRFAVNPGLLIT-NH2	more than 97%
HIVWASRELERFAVNPGLLEVT-NH2	more than 95%
YAIPQALNTLLNTVGGHQAA-NH2	98%
GATPQDLNTMLNTVGGHQAA-NH2	98%
G S D I A G T T S T L Q E Q I G W M T-NH2	90%
W S A L A G T T S L L Q G Q L G W I T-NH2	more than 97%
PIVQNIQGQMVHQAISPRTLNAW-NH2	approximately 93%

Experiment: peptide synthesis; Tenta Gel P RAM, theoretical loading 0.20 meq/g (RAPP POLYMERE GmbH)
Details: whole synthesis, analytical HPLC

Substance	final HPLC purity
FILQNIEGQLVGGGYAISPRTLVAGGGG	more than 94%
FILQNIQGQLVGGGYAISPRTLVAG-NH2	more than 97%
